# Source: article PMC10901781
# The chains behind the UniProt entries cited, without tags or fusion partners.
# UniProt Q01196: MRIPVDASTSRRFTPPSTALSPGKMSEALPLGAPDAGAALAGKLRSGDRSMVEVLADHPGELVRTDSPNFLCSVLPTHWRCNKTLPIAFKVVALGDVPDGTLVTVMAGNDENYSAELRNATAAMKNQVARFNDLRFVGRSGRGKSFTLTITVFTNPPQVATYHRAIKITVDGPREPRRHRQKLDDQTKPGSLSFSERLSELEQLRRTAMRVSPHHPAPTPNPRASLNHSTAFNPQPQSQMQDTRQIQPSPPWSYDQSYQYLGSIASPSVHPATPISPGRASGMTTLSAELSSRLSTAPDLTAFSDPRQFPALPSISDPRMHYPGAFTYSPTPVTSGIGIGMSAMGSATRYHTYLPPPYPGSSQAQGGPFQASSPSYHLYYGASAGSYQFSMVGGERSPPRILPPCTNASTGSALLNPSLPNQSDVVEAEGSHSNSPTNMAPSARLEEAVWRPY
# UniProt P17844: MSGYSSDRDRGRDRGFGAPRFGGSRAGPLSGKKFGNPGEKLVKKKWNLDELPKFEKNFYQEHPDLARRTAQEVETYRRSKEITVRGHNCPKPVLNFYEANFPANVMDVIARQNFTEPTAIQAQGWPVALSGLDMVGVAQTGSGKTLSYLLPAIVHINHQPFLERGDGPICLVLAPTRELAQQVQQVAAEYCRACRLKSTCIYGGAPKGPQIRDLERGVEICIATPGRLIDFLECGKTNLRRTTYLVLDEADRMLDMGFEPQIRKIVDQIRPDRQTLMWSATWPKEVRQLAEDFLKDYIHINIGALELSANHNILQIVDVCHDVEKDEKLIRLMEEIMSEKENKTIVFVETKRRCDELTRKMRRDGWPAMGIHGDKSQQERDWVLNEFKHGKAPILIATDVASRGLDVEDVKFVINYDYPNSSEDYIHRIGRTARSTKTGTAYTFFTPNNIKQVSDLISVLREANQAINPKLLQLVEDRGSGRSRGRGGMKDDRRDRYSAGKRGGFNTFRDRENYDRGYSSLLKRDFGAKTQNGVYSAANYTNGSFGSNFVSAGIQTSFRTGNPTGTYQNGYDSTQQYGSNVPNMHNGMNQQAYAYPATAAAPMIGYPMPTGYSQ
# UniProt P54132: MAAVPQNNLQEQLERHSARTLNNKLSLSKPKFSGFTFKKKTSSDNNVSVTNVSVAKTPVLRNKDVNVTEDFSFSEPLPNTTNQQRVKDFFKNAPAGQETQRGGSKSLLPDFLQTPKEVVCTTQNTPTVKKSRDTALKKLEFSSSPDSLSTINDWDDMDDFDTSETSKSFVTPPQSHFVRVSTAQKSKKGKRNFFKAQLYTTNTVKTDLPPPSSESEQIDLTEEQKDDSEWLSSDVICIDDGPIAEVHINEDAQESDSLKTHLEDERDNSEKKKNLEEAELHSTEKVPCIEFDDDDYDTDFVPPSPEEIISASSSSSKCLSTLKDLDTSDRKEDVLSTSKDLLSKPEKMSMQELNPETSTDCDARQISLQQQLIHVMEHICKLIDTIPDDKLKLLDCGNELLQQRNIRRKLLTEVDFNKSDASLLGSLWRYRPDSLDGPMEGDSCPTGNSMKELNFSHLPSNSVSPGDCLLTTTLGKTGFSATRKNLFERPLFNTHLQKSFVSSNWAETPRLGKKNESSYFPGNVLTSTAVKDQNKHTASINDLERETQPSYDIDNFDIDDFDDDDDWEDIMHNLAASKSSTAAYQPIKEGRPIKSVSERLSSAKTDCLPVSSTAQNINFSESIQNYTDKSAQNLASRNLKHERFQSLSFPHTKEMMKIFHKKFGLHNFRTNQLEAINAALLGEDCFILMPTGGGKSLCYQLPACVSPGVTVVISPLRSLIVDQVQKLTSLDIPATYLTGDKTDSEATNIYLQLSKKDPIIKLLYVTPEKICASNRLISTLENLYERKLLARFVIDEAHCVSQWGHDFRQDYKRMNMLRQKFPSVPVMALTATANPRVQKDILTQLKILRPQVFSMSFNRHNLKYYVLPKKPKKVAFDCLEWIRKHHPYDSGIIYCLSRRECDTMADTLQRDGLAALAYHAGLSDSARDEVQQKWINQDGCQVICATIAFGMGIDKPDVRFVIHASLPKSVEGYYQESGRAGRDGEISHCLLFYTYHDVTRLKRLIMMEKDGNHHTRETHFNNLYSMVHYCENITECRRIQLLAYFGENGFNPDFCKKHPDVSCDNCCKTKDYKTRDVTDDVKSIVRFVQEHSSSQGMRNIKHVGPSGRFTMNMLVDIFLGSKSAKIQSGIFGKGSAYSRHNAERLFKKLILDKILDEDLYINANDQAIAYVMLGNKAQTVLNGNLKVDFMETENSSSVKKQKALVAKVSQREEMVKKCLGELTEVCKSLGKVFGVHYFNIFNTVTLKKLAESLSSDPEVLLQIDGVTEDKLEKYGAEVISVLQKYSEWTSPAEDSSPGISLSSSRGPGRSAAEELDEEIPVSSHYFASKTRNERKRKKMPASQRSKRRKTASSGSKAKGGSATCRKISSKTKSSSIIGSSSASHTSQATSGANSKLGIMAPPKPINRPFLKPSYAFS
# UniProt Q13951: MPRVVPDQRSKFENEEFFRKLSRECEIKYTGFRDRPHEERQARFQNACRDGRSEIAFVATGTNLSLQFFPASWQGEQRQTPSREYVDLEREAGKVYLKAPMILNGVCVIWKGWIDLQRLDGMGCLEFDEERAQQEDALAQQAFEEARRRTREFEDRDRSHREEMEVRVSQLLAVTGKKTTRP
# These are yes or no findings as the source states them, for the method shown. In cells and extracts the contact can be indirect. A yes stands for co-enrichment or nearness to the bait. Other partners may have been found.
# T1: PHF6 (human (endogenous in THP-1)) (UniProt Q8IWS0)
# T1 sequence: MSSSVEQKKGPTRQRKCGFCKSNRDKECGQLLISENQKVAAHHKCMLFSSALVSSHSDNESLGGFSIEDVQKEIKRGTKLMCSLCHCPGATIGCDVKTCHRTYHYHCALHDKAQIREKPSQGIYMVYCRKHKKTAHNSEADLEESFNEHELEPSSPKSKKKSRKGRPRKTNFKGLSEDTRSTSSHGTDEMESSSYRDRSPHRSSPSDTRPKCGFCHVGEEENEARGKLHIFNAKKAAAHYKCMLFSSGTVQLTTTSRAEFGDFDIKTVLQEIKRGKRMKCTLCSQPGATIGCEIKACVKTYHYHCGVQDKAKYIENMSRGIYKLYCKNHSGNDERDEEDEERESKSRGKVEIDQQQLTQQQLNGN
# Molecular target: T1, PHF6 (human (endogenous in THP-1))
# Assay: affinity purification with mass spectrometry; agarose-conjugated anti-PHF6 antibody against isotype IgG; THP-1 nuclear protein extracts (Benzonase-treated), 4 °C overnight, five washes of 1x PBS with 1% NP-40; gel slices, trypsin, LC-MS/MS
row,Molecule,binding
1,RUNX1 (from UniProt Q01196 1-453),binds
2,DDX5 (from UniProt P17844 1-614),binds
3,BLM (from UniProt P54132 1-1417),binds
4,CBFB (from UniProt Q13951 1-182),binds
5,"SRRT (protein, UniProt Q9BXP5 1-876) MGDSDDEYDRRRRDKFRRERSDYDRSRERDERRRGDDWNDREWDRGRERRSRGEYRDYDRNRRERFSPPRHELSPPQKRMRRDWDEHSSDPYHSGYEMPYAGGGGGPTYGPPQPWGHPDVHIMQHHVLPIQARLGSIAEIDLGVPPPVMKTFKEFLLSLDDSVDETEAVKRYNDYKLDFRRQQMQDFFLAHKDEEWFRSKYHPDEVGKRRQEARGALQNRLRVFLSLMETGWFDNLLLDIDKADAIVKMLDAAVIKMEGGTENDLRILEQEEEEEQAGKPGEPSKKEEGRAGAGLGDGERKTNDKDEKKEDGKQAENDSSNDDKTKKSEGDGDKEEKKEDSEKEAKKSSKKRNRKHSGDDSFDEGSVSESESESESGQAEEEKEEAEEALKEKEKPKEEEWEKPKDAAGLECKPRPLHKTCSLFMRNIAPNISRAEIISLCKRYPGFMRVALSEPQPERRFFRRGWVTFDRSVNIKEICWNLQNIRLRECELSPGVNRDLTRRVRNINGITQHKQIVRNDIKLAAKLIHTLDDRTQLWASEPGTPPLPTSLPSQNPILKNITDYLIEEVSAEEEELLGSSGGAPPEEPPKEGNPAEINVERDEKLIKVLDKLLLYLRIVHSLDYYNTCEYPNEDEMPNRCGIIHVRGPMPPNRISHGEVLEWQKTFEEKLTPLLSVRESLSEEEAQKMGRKDPEQEVEKFVTSNTQELGKDKWLCPLSGKKFKGPEFVRKHIFNKHAEKIEEVKKEVAFFNNFLTDAKRPALPEIKPAQPPGPAQILPPGLTPGLPYPHQTPQGLMPYGQPRPPILGYGAGAVRPAVPTGGPPYPHAPYGAGRGNYDAFRGQGGYPGKPRNRMVRGDPRAIVEYRDLDAPDDVDFF",binds
